Measurements: patent US20180214548A1
Results are given in words; binding and its absence hold for the method and conditions named. Some results given as binding are weak or reduced against the parent protein; the word gives no strength.

Molecular target: cyno PD-1, full length, on CHO-K1 cells (cyno monkey) (UniProt B0LAJ3)
Experiment: flow cytometry on activated cyno monkey PBMCs (MFI)

B1: fully human anti-PD-1 antibody 76G5B3 (antibody, human IgG4 S228P, kappa, V domains shown)
VH: QVQLVESGGGVVQPGRSLRLSCAASGFTFSDYGFHWVRQAPGKGLEWVAVIWYDGSNEYYTDSVKGRFTISRDNSKNTLYLQMNSLRAEDTAMYFCVVNPFDYWGQGTLVTVSS
VL: DIQMTQSPSSLSAFVGDRVTITCRASQGINHYLAWYQQKPGKAPNLLILAASTLLSGVPSRFGGRGSGTDFTLIISSLQPEDVATYYCQKYDSAPYTFGQGTKLEIKR
- binding: binds
